No constants are given. Whether binding was seen depends on the method and setting. Binding seen in cells or lysates may run through a third protein. Some binding calls cover weakened binding; strength is not graded here. For some assays here: Tags and fused reporters may be left off the sequences shown.
Columns and labels:
[1] = target: RAF1 (full-length human RAF1 with C-terminal StrepTagII) (human) (UniProt P04049); assay: pull-down
[2] = target: T1, CDC37 I23E (C-terminal StrepTagII) (human) (UniProt Q16543); assay: pull-down
T1 sequence: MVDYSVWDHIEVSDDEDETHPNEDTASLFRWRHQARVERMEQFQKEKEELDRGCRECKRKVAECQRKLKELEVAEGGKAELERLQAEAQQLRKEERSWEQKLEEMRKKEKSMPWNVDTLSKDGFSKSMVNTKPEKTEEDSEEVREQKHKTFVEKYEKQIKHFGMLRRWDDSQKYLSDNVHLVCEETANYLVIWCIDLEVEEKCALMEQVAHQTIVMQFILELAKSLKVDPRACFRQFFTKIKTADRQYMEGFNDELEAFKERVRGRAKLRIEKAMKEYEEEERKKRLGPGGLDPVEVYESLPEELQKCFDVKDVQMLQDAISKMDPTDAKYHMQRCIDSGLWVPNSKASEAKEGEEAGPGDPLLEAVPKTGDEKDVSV

Amino acid sequences for entries named in this document (tags omitted).
UniProt P62258: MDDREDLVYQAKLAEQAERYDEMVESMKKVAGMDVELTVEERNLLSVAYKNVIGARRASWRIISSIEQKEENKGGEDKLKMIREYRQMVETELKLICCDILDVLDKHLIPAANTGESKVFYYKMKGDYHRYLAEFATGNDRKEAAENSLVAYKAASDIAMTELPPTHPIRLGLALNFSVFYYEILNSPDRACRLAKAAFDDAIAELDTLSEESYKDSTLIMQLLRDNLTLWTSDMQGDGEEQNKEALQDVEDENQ
UniProt P15056: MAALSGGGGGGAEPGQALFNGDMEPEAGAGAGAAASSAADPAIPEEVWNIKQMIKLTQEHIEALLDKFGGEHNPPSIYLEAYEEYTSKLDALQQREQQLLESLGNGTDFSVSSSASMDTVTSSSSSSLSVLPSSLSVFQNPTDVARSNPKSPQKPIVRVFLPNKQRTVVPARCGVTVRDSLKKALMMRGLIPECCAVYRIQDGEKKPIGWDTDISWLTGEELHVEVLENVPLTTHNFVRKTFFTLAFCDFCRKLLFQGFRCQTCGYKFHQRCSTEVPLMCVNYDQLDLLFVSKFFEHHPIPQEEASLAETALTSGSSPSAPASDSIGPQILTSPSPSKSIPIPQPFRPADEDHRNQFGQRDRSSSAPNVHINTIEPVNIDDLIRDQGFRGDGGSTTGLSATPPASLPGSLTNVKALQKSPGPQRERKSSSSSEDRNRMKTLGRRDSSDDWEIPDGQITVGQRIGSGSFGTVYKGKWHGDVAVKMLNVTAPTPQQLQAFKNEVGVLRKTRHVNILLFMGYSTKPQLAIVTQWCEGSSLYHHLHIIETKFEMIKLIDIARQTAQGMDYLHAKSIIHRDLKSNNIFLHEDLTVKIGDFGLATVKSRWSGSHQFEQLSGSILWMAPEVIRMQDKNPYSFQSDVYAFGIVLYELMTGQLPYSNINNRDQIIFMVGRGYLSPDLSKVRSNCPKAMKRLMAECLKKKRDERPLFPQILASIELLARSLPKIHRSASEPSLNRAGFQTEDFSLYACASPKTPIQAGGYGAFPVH

Substance | binding [1] | binding [2]
14-3-3ε (endogenous) (from UniProt P62258 1-255) | binds | –
B-RAF (endogenous) (from UniProt P15056 1-766) | – | no binding

Source: publication doi:10.1101/2022.05.04.490607 (bioRxiv, 2022)
